Laboratory results taken from publication PMC9813592, “A genetic screen in Arabidopsis reveals the identical roles for RBP45d and PRP39a in 5’ cryptic splice site selection”.
No constants are given. Whether binding was seen depends on the method and setting.

T1: U1A (Arabidopsis) (UniProt Q39244)
T1 sequence: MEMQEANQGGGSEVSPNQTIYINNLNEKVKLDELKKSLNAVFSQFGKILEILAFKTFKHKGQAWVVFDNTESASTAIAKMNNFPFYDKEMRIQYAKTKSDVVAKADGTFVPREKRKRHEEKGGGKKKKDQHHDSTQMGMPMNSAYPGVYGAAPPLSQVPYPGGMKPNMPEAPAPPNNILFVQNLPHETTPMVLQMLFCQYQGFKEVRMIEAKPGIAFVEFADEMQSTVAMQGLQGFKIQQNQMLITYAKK

T2: U1-70K (Arabidopsis), Q42404
T2 chain: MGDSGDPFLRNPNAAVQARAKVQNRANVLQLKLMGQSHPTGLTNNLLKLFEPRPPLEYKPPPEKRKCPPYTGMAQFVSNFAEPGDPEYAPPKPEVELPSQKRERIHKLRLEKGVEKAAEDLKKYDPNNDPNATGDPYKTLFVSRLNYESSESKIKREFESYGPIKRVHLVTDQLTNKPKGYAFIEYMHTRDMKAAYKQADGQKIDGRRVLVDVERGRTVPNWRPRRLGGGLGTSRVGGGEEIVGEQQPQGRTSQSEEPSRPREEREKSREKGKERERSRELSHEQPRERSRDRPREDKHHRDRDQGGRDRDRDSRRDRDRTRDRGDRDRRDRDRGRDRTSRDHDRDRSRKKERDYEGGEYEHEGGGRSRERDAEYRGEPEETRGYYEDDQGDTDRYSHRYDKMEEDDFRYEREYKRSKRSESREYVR


Legend:
U1A (Arabidopsis) = molecular target: T1, U1A (Arabidopsis); test: two-hybrid; yeast strain AH109; fusions from pDEST22 and pDEST32; transformants selected on SD-Leu-Trp; interactions tested on SD-Trp-Leu-His with or without 5 mM 3-AT
[1] = molecular target: T2, U1-70K (Arabidopsis), Q42404; test: as above; conditions: remark: other sources report otherwise

| binding (U1A (Arabidopsis)) | binding [1] | Binder |
| --- | --- | --- |
| no binding |  | RBP45d (protein, UniProt Q8VXZ9 1-425) MAMMHPPQPPQGSYHHPQTLEEVRTLWIGDLQYWVDENYLTSCFSQTGELVSVKVIRNKITGQPEGYGFIEFISHAAAERTLQTYNGTQMPGTELTFRLNWASFGSGQKVDAGPDHSIFVGDLAPDVTDYLLQETFRVHYSSVRGAKVVTDPSTGRSKGYGFVKFAEESERNRAMAEMNGLYCSTRPMRISAATPKKNVGVQQQYVTKAVYPVTVPSAVAAPVQAYVAPPESDVTCTTISVANLDQNVTEEELKKAFSQLGEVIYVKIPATKGYGYVQFKTRPSAEEAVQRMQGQVIGQQAVRISWSKNPGQDGWVTQADPNQWNGYYGYGQGYDAYAYGATQDPSVYAYGGYGYPQYPQQGEGTQDISNSAAGGVAGAEQELYDPLATPDVDKLNAAYLSVHASAILGRPMWQRTSSLTSQLGK |
|  | no binding | RBP45d, Q8VXZ9 1-425 (protein) MAMMHPPQPPQGSYHHPQTLEEVRTLWIGDLQYWVDENYLTSCFSQTGELVSVKVIRNKITGQPEGYGFIEFISHAAAERTLQTYNGTQMPGTELTFRLNWASFGSGQKVDAGPDHSIFVGDLAPDVTDYLLQETFRVHYSSVRGAKVVTDPSTGRSKGYGFVKFAEESERNRAMAEMNGLYCSTRPMRISAATPKKNVGVQQQYVTKAVYPVTVPSAVAAPVQAYVAPPESDVTCTTISVANLDQNVTEEELKKAFSQLGEVIYVKIPATKGYGYVQFKTRPSAEEAVQRMQGQVIGQQAVRISWSKNPGQDGWVTQADPNQWNGYYGYGQGYDAYAYGATQDPSVYAYGGYGYPQYPQQGEGTQDISNSAAGGVAGAEQELYDPLATPDVDKLNAAYLSVHASAILGRPMWQRTSSLTSQLGK |
